{
  "source": "PubChem BioAssay AID1347423",
  "about": "(Functional Genomics Laboratory (NCATS/FGL), 2020)",
  "note": "In all, about 52,000 sequences went through this assay and about 210 (0.4%) were called active.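 Rule for the calls: active = gene whose silencing raises cell survival under the drug, median off-target-corrected z-score across its silencing RNAs 2 or more; inactive = the rest.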 This is one part of the list.",
  "data": [
    {"assay": "Resistance to Poly (ADP-Ribose) Polymerase inhibitor: Gene Identification via Genome-wide siRNA Screen", "settings": "mouse BRCA2 R2336H ES cells, olaparib, CellTiter-Glo viability; active compounds read high", "how_it_was_run": "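Mouse BRCA2 R2336H ES cells were reverse-transfected with siRNA (20 nM final), treated at 48 h with 500 nM olaparib, and read by CellTiter-Glo after 72 h. Scores: MAD-based z per siRNA, median per gene, seed off-target correction.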", "values": [
      {"sequence": "CCUACAAUUCUAGGUUACGTT against Snx16", "z-score": "inactive: -0.928"},
      {"sequence": "GGACUAUGGCUCAGCACUCTT against Ttyh1", "z-score": "inactive: 0.597"},
      {"sequence": "CCUGACUCGUAUUAAAACATT against Zbtb7", "z-score": "inactive: 0.503"},
      {"sequence": "GGUAACCAUGAUGAUGACATT against D4Ertd89e", "z-score": "inactive: 0.176"},
      {"sequence": "GGAUCUUUCCUGAUUUAUATT against Ggtla1", "z-score": "inactive: 1.55"},
      {"sequence": "GGGCUUCUGCUUCAACAUCTT against 6-Sep", "z-score": "inactive: 0.657"},
      {"sequence": "GGUAGAUGGGUUUCAUAAUTT against Gpc2", "z-score": "inactive: -0.576"},
      {"sequence": "GGCGCAACUUGAAACUUACTT against Galnt4", "z-score": "inactive: 2.07"},
      {"sequence": "GGAAAAUGCAUUUCAGACATT against Ugcg", "z-score": "inactive: 0.115"},
      {"sequence": "GGAUGUCGGUGUGAUUUGCTT against Cd163", "z-score": "inactive: 1.54"},
      {"sequence": "GGAGAGAAACUUCAGAGUGTT against Spon2", "z-score": "inactive: 1.42"},
      {"sequence": "GAUCCCUGGAUUGUGGAGUTT against 2310057N15Rik", "z-score": "inactive: 0.96"},
      {"sequence": "CCACAUGCCUGAGAGAUUCTT against Spp2", "z-score": "inactive: 0.787"},
      {"sequence": "GCGGUAUGUACCUGUGAAATT against Exosc3", "z-score": "inactive: -3.15"},
      {"sequence": "GCGAUUCCUAGAGCUGAGCTT against Git1", "z-score": "inactive: 0.465"},
      {"sequence": "ACUGUUUAGACCCGGUUUCTT against Cd59b", "z-score": "inactive: 0.132"},
      {"sequence": "GCAUGUAUAUAGGUAAAACTT against Nedd1", "z-score": "inactive: 1.24"},
      {"sequence": "GGAUUCUUCGCUCCAAUGATT against Pacs1", "z-score": "inactive: 1.65"},
      {"sequence": "GGAGAUCAUGGAGAAAGGCTT against Btbd14b", "z-score": "inactive: -0.461"},
      {"sequence": "GAUUUCAUUAAACAUGUCCTT against Cox8b", "z-score": "inactive: -0.165"},
      {"sequence": "CCGCUCUGUUUCAAUCCUGTT against 4930417M19Rik", "z-score": "inactive: 1.6"},
      {"sequence": "GGAUCUUUUGAGAAAGAACTT against Bai3", "z-score": "inactive: 0.432"},
      {"sequence": "GGCAGGAACUUUAUAAGGATT against Xlr4", "z-score": "inactive: 0.489"},
      {"sequence": "GGAUCUAGUCCCUGAUUUGTT against Sdhb", "z-score": "inactive: 0.661"},
      {"sequence": "GGAUGGAACUAUCUGAAUUTT against Slc7a5", "z-score": "inactive: 1.76"},
      {"sequence": "CGCCACGAACUCAAUUCUGTT against Irx4", "z-score": "inactive: -0.738"},
      {"sequence": "GGAAAUCUAAAGGAGACAUTT against Cdo1", "z-score": "inactive: 2.9"},
      {"sequence": "GCCUCGAGAUAUUCUUUGUTT against A330064G03Rik", "z-score": "inactive: -0.803"},
      {"sequence": "GCGAGGAAAGAGCACUGUATT against BC055107", "z-score": "inactive: 1.11"},
      {"sequence": "GGACAGAGAAAGGCACAGATT against Clcn3", "z-score": "inactive: 0.844"},
      {"sequence": "GGAUGUGGGUGGAUAUCAUTT against Sit", "z-score": "inactive: 2.34"},
      {"sequence": "CCCAUUGUCAUGAUAAGCUTT against Fbln1", "z-score": "inactive: 0.608"},
      {"sequence": "UUUUCCAGUUAGUGACAACTT against Oxct2b", "z-score": "inactive: 0.0287"},
      {"sequence": "GCUCCAGAUGUCAAAUUAATT against 2310034L04Rik", "z-score": "inactive: 1.03"},
      {"sequence": "CCAGGAUUACUUACACUCGTT against Flot1", "z-score": "inactive: 0.396"},
      {"sequence": "GCAAGAGUCCACCUUUAGCTT against Gstk1", "z-score": "inactive: 1.28"},
      {"sequence": "GGAUGUGCUUAUGAACAAUTT against Rab38", "z-score": "inactive: -0.0251"},
      {"sequence": "GCUGACAGUAGUUUGAAGATT against Defb1", "z-score": "inactive: -0.459"},
      {"sequence": "GGACCAUAAUGGCAAUAAATT against 1700011H14Rik", "z-score": "inactive: -0.769"},
      {"sequence": "CCAUUCUGAAUCUCUAAUCTT against Pigw", "z-score": "inactive: -0.0839"},
      {"sequence": "GGCCAAAUAGCAUUUGCCATT against Olfr657", "z-score": "inactive: 0.292"},
      {"sequence": "GGUCAGAGUGCCUCUUGAATT against Slc7a5", "z-score": "inactive: -0.666"},
      {"sequence": "GCAUAACUCAUGAUCUCCUTT against Oit3", "z-score": "inactive: 0.546"},
      {"sequence": "GCACAGUAGUGAAAGUGAATT against Hspa14", "z-score": "inactive: -0.0907"},
      {"sequence": "GGACUUGUCUGGAUUUUGGTT against Mal2", "z-score": "inactive: 0.301"},
      {"sequence": "GGACGGUCUCAACUUUUCCTT against Icam2", "z-score": "inactive: 1.14"},
      {"sequence": "GCUUACUAAUGCGGAUUACTT against 5330438D12Rik", "z-score": "inactive: 1.26"},
      {"sequence": "GGUGGAGAUUGUUUGUAAATT against AW125753", "z-score": "inactive: 1.4"},
      {"sequence": "CCCACCACAAGCUAAUACATT against Ubadc1", "z-score": "inactive: -0.00448"},
      {"sequence": "GGAAGAGGCUGAAUCAGCUTT against MGC37347", "z-score": "inactive: -1.28"},
      {"sequence": "GCAACCUGAGGAAUUCAAUTT against D330045A20Rik", "z-score": "inactive: 0.017"},
      {"sequence": "CCUACAGACGGAUACCAGATT against 9930012K11Rik", "z-score": "inactive: -0.51"},
      {"sequence": "GGUUUUUCGAGUUUUUUCUTT against Msx1", "z-score": "inactive: -0.359"},
      {"sequence": "GGUAGGACCCAAACAUGUATT against 9830147P19Rik", "z-score": "inactive: -1.02"},
      {"sequence": "GGGCUUCUGCUUUUACUACTT against Ppp2cz", "z-score": "inactive: 0.734"},
      {"sequence": "GGUGACUGUUCAGAUGGAGTT against 2700038I16Rik", "z-score": "inactive: -0.1"},
      {"sequence": "GGAAAGAAUAUGAGAAUGCTT against Reck", "z-score": "inactive: 2.07"},
      {"sequence": "GGUACUUGAAGACUUGGAGTT against Rasal1", "z-score": "inactive: -0.224"},
      {"sequence": "GGCAGAAAAUAAUUACUUGTT against Sh3d19", "z-score": "inactive: 1.37"},
      {"sequence": "CCAUUGUCACUCCUAGUGUTT against Olfr1361", "z-score": "inactive: 0.761"},
      {"sequence": "GGUGUGGCUGAUGUAUAAATT against Syt7", "z-score": "inactive: 0.97"},
      {"sequence": "GCACAAUCAUUCUUCUCAUTT against Frap1", "z-score": "inactive: -0.713"},
      {"sequence": "GGCAUUGAAGACAAGACCCTT against Papd1", "z-score": "inactive: 0.981"},
      {"sequence": "GGGAAGUGCCUCCUAUACUTT against 3010027G13Rik", "z-score": "inactive: 0.0362"},
      {"sequence": "GCUCCCACUUCACUUCUGUTT against Olfr965", "z-score": "inactive: 0.428"},
      {"sequence": "CCUUAAGACCGGAUUUUUUTT against Cyp4f14", "z-score": "inactive: 0.367"},
      {"sequence": "GGGAUGUGCAAUUAUAUCUTT against Muc6", "z-score": "inactive: 1.32"},
      {"sequence": "GGAUACCAAGAUUCCAAAUTT against Pik3r4", "z-score": "inactive: -0.502"},
      {"sequence": "CCCAAAGAGAAAUUUCUAGTT against Mfi2", "z-score": "inactive: 0.576"},
      {"sequence": "GGUGACAACACUUGUCAACTT against Catna2", "z-score": "inactive: 0.0714"},
      {"sequence": "CGGCUCUUCAAUAGAGCCUTT against Olfr123", "z-score": "inactive: 0.399"},
      {"sequence": "GGCUUUCCCAAGCUAAGAGTT against Maff", "z-score": "inactive: 0.556"},
      {"sequence": "GGGCAACAACAAUGUCUUATT against Islr", "z-score": "inactive: -0.565"},
      {"sequence": "CCAUGAAGUCCCAUGUUAUTT against Tpo", "z-score": "inactive: 0.161"},
      {"sequence": "GGUCAAGACGGUCUACCGATT against Rab3d", "z-score": "inactive: -0.296"},
      {"sequence": "CCCUCAAAGUCAUUUCAAATT against 4930463G05Rik", "z-score": "inactive: -0.615"},
      {"sequence": "GUUAAGAUUUAGGCAUCAATT against Olfr805", "z-score": "inactive: 0.745"},
      {"sequence": "GGAGAUGCCUAGUAUGAGCTT against Onecut2", "z-score": "inactive: 1.41"},
      {"sequence": "GACCAGAAAUUUAAGUGCUTT against Wbscr18", "z-score": "inactive: -0.348"},
      {"sequence": "CCAUCUCAGAAAAGCUUGUTT against Il1rl1l", "z-score": "inactive: -0.756"},
      {"sequence": "GGAUUAAACUGCAUAACAGTT against Ctsq", "z-score": "inactive: -0.464"},
      {"sequence": "GUCAUCAUGGGUCCUGAGATT against V1ri9", "z-score": "inactive: -1.83"},
      {"sequence": "CCUAUUUGGUUCCUGAUGGTT against Gm1968", "z-score": "inactive: -1.04"},
      {"sequence": "GGCUUUCUUCUAGAAUGAGTT against Nptx1", "z-score": "inactive: 0.868"},
      {"sequence": "GGCUCCUGGCUUUAUCCUGTT against Olfr107", "z-score": "inactive: -0.159"},
      {"sequence": "GGGAAAUCUCUGAUUACAUTT against Eif2ak3", "z-score": "inactive: 0.253"},
      {"sequence": "GGGCUUAAAUCGGUUUGAATT against 2810006K23Rik", "z-score": "inactive: 0.741"},
      {"sequence": "GGCCUCCAAUUUUCAAGUUTT against Pnliprp1", "z-score": "inactive: 0.357"}
    ]}
  ]
}
